The results in this text go back to publication PMC11873932.

The target in assay [1] is T1, PSKH1 with C-terminal FLAG tag and TurboID fusion (human) (UniProt P11801).
T1 sequence: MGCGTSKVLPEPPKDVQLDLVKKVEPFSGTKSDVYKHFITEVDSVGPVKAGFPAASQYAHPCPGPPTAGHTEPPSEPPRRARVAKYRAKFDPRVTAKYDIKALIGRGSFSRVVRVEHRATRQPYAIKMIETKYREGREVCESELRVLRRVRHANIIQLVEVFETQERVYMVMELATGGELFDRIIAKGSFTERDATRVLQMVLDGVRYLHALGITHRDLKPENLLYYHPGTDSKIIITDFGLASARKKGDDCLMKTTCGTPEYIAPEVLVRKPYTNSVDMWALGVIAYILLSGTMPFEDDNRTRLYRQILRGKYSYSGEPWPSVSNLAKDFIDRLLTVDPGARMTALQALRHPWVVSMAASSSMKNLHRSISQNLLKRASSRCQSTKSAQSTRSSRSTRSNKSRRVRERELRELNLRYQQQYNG
Put plainly: proximity labelling; TurboID: PSKH1-FLAG-TurboID induced with doxycycline (100 ng/mL) overnight in HEL cells, biotin 500 uM for 10 min, Streptavidin capture, trypsin, mass spectrometry; against uninduced cells; parallel experiments with ionomycin.

Assay [2] deals with T2, PSKH1 with C-terminal 3C protease-cleavable FLAG tag (human) (UniProt P11801).
T2 sequence: T1 sequence
Put plainly: affinity purification with mass spectrometry; FLAG-IP of PSKH1 with C-terminal 3C-cleavable FLAG from HEK293T lysates on anti-FLAG resin, elution with 3C protease, trypsin, mass spectrometry.

These are yes or no findings as the source states them, for the method shown. Binding seen in cells or lysates may run through a third protein. These calls come from enrichment with a bait or labelling near it, and not all partners need be listed. For some assays here: No binding means not detected with the bait. Tags and fused reporters may be left off the sequences shown.

B1: Reticulocalbin-3 (RCN3), endogenous (protein, UniProt Q96D15 21-328)
chain: KPSPDAGPHGQGRVHQAAPLSDAPHDDAHGNFQYDHEAFLGREVAKEFDQLTPEESQARLGRIVDRMDRAGDGDGWVSLAELRAWIAHTQQRHIRDSVSAAWDTYDTDRDGRVGWEELRNATYGHYAPGEEFHDVEDAETYKKMLARDERRFRVADQDGDSMATREELTAFLHPEEFPHMRDIVIAETLEDLDRNKDGYVQVEEYIADLYSAEPGEEEPAWVQTERQQFRDFRDLNKDGHLDGSEVGHWVLPPAQDQPLVEANHLLHESDTDKDGRLSKAEILGNWNMFVGSQATNYGEDLTRHHDEL
For the molecule B1, the binding result in assay [1] is “binds”.

B2: GOLGA8R, endogenous (protein, UniProt I6L899 1-631)
chain: MAEETQHNKLAAAKKKLKEYWQKNRPRVPAGVNRNRKTNGSIPETATSGGCQPPGDSATGFHREGPTSSATLKDLESPCQERAVVLDSTSVKISRLKNTIKSLKQQKKQVEHQLEEEKKANNERQKAERVLEVQIQTLIIQKEELNTDLYHMERSLRYFEEESKDLAVRLQHSLQCKGELERALSAVIATEKKKANQLSSCSKAHTEWELEQSLQDQALLKAQLTQLKESFQQLQLERDECAEHIEGERARWHQRMSKMSQEICTLKKEKQDMRWVEQLEWSLSKLKNQTAEPLPPEPPAVPSEVELQHLRKELERVAGELQSQVKNNQHISLLNRRQEERIREQEERLRKQEERLQEQHEKLRQLAKPQSVFEELNNENKSTLQLEQQVKELQEKLGEEHLEVASQQNQQLTAQLSLMALPGEGHGGEHLDSEGEEAPQPMPSVPEDPESREAMSSFMDHLKEKADLSELLKKQELRFIQYWQERCHQKIHHLLSEPGGRAKDAALGGGHHQAGAQGGDEGEAAGAAADGIAAYSNYNNGHRKFLAAAHNSADEPGPGAPAPQELGAADKHGDLREVTLTSSAQGEAREDPLLDKPTAQPIVQDHQEHPGLGSNCCVPLFCWAWLPRRRR
As to B2, in assay [1], the binding entry is “binds”.

B3: Reticulocalbin-1 (RCN1) (protein, UniProt Q15293 30-331)
chain: KPTVRKERVVRPDSELGERPPEDNQSFQYDHEAFLGKEDSKTFDQLTPDESKERLGKIVDRIDNDGDGFVTTEELKTWIKRVQKRYIFDNVAKVWKDYDRDKDDKISWEEYKQATYGYYLGNPAEFHDSSDHHTFKKMLPRDERRFKAADLNGDLTATREEFTAFLHPEEFEHMKEIVVLETLEDIDKNGDGFVDQDEYIADMFSHEENGPEPDWVLSEREQFNEFRDLNKDGKLDKDEIRHWILPQDYDHAQAEARHLVYESDKNKDEKLTKEEILENWNMFVGSQATNYGEDLTKNHDEL
B3: the binding result in assay [2] is “binds”.

B4: Cdc37 (protein, UniProt Q16543 1-378)
chain: MVDYSVWDHIEVSDDEDETHPNIDTASLFRWRHQARVERMEQFQKEKEELDRGCRECKRKVAECQRKLKELEVAEGGKAELERLQAEAQQLRKEERSWEQKLEEMRKKEKSMPWNVDTLSKDGFSKSMVNTKPEKTEEDSEEVREQKHKTFVEKYEKQIKHFGMLRRWDDSQKYLSDNVHLVCEETANYLVIWCIDLEVEEKCALMEQVAHQTIVMQFILELAKSLKVDPRACFRQFFTKIKTADRQYMEGFNDELEAFKERVRGRAKLRIEKAMKEYEEEERKKRLGPGGLDPVEVYESLPEELQKCFDVKDVQMLQDAISKMDPTDAKYHMQRCIDSGLWVPNSKASEAKEGEEAGPGDPLLEAVPKTGDEKDVSV
For B4, in assay [2], the binding entry is on record as “binds”.

B5: PSKH2, endogenous (protein, UniProt Q96QS6 1-385)
chain: MGCGASRKVVPGPPALAWAKHEGQNQAGVGGAGPGPEAAAQAAQRIQVARFRAKFDPRVLARYDIKALIGTGSFSRVVRVEQKTTKKPFAIKVMETREREGREACVSELSVLRRVSHRYIVQLMEIFETEDQVYMVMELATGGELFDRLIAQGSFTERDAVRILQMVADGIRYLHALQITHRNLKPENLLYYHPGEESKILITDFGLAYSGKKSGDWTMKTLCGTPEYIAPEVLLRKPYTSAVDMWALGVITYALLSGFLPFDDESQTRLYRKILKGKYNYTGEPWPSISHLAKDFIDKLLILEAGHRMSAGQALDHPWVITMAAGSSMKNLQRAISRNLMQRASPHSQSPGSAQSSKSHYSHKSRHMWSKRNLRIVESPLSALL
With B5, the binding entry in assay [1] is given as “no binding”.
